For part of these data: Construct, isoform or probe ends are uncertain for at least one entry.
How the values were obtained:
[1] = test system: Lin28A + Zcchc11 C2H2 domain (Homo sapiens / Mus musculus); experiment: EMSA; settings: Lin28 and Zcchc11 C2H2 domain bind pre-let-7 synergistically; 0.5 nM RNA; purified recombinant protein; protein details: His-tagged each; label: 5'-end label (EMSA)
[2] = test system: Zcchc11 deltaPneumoG/C (Mus musculus); experiment: activity assay; settings: uridylation with Lin28 (IP or recombinant); Lin28 and Zcchc11 sufficient; purified recombinant protein; protein details: Flag and His, E. coli (pETDUET-1); label: 5'-end label (EMSA)
Zcchc11 (Mus musculus) = Zcchc11 (Mus musculus) (UniProt B2RX14); experiment: activity assay; settings: Zcchc11-catalyzed uridylation of mature miRNA, no Lin28 stated; Zcchc11 species not stated in legend; protein in a lysate after overexpression; protein details: Flag, immunopurified from HEK293T

Chains of the proteins cited; added tags and fusions are not shown. Lines headed by an entry give the natural chain unless they say otherwise; changes in a name come on top. Chains listed by the source or under a name are the forms on record and can include a tag or linker.
UniProt B2RX14: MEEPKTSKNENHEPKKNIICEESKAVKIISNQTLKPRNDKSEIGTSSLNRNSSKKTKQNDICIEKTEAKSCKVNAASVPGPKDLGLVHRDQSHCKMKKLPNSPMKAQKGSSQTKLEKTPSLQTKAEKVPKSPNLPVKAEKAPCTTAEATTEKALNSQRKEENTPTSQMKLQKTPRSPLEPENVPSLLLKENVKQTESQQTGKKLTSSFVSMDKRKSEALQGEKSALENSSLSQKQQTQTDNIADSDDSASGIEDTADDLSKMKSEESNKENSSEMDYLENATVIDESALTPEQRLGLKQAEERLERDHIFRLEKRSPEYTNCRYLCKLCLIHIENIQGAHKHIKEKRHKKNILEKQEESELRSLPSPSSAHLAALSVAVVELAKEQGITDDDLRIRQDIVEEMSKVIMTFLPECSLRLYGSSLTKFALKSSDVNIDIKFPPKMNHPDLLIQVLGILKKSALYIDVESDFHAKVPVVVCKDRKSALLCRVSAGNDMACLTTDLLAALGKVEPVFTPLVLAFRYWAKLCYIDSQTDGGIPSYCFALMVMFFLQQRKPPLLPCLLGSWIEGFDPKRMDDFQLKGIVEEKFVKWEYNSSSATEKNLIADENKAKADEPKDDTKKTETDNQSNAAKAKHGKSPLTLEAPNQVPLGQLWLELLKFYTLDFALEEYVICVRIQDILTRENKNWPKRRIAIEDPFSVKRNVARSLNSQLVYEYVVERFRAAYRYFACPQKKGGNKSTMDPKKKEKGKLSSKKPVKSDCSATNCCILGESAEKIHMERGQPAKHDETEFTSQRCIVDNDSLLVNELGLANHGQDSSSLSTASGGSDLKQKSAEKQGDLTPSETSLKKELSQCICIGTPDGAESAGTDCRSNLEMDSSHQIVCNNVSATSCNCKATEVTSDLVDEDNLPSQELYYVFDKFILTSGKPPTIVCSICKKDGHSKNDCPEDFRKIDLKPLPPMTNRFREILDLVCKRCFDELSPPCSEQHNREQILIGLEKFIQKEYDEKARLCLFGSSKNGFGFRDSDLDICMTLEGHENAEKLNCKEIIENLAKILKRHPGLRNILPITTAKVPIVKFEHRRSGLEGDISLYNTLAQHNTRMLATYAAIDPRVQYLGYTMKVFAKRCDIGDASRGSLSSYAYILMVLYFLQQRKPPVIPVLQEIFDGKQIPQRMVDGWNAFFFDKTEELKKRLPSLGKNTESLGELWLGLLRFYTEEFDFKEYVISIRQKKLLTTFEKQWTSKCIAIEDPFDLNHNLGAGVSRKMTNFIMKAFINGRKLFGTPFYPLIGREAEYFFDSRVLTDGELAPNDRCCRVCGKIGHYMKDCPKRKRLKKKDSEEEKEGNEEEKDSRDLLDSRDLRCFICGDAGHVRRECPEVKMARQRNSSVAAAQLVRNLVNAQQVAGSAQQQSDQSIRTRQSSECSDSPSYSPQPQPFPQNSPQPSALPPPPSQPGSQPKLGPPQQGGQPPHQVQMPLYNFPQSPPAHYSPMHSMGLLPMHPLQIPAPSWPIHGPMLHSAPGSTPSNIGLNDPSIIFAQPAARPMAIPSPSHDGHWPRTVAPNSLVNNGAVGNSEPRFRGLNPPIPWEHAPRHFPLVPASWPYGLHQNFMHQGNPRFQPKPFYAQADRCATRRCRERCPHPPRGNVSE
Lin28A + Zcchc11 C2H2 domain (Homo sapiens / Mus musculus), one chain, as listed by the source, chain 1 of 2: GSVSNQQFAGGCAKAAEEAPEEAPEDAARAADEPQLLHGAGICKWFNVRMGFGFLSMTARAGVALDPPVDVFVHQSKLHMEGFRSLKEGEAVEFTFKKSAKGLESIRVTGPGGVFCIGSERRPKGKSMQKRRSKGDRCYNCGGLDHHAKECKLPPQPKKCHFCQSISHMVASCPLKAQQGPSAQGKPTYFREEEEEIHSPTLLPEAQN
Lin28A + Zcchc11 C2H2 domain (Homo sapiens / Mus musculus), one chain, as listed by the source, chain 2 of 2: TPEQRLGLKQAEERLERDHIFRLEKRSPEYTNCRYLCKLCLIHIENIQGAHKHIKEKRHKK

Sequence: GAGGUAGUAGUUUGUACAGUUUGAGGGUCUAUGAUACCACCCGGUACAGGAGAUAACUGUACAGGCCACUGCCUUGC [pre-let-7g]
- binding result [1]: binds
- activity on this sequence [2]: active

Sequence: UGAGGUAGUAGUUUGUGCUGUU [mature let-7 miRNA (SEQ 12)]
- activity on this sequence (Zcchc11 (Mus musculus)): active
